From PMC5009351
These are yes or no findings as the source states them, for the method shown. In cells and extracts the contact can be indirect. Some results given as binding are weak or reduced against the parent protein; the word gives no strength. For part of these data: Where a sequence is shown, tags or fusion partners need not be part of it.

Sequences of proteins named here, by UniProt entry; tags and fusion partners are left off.
UniProt Q9UPY3: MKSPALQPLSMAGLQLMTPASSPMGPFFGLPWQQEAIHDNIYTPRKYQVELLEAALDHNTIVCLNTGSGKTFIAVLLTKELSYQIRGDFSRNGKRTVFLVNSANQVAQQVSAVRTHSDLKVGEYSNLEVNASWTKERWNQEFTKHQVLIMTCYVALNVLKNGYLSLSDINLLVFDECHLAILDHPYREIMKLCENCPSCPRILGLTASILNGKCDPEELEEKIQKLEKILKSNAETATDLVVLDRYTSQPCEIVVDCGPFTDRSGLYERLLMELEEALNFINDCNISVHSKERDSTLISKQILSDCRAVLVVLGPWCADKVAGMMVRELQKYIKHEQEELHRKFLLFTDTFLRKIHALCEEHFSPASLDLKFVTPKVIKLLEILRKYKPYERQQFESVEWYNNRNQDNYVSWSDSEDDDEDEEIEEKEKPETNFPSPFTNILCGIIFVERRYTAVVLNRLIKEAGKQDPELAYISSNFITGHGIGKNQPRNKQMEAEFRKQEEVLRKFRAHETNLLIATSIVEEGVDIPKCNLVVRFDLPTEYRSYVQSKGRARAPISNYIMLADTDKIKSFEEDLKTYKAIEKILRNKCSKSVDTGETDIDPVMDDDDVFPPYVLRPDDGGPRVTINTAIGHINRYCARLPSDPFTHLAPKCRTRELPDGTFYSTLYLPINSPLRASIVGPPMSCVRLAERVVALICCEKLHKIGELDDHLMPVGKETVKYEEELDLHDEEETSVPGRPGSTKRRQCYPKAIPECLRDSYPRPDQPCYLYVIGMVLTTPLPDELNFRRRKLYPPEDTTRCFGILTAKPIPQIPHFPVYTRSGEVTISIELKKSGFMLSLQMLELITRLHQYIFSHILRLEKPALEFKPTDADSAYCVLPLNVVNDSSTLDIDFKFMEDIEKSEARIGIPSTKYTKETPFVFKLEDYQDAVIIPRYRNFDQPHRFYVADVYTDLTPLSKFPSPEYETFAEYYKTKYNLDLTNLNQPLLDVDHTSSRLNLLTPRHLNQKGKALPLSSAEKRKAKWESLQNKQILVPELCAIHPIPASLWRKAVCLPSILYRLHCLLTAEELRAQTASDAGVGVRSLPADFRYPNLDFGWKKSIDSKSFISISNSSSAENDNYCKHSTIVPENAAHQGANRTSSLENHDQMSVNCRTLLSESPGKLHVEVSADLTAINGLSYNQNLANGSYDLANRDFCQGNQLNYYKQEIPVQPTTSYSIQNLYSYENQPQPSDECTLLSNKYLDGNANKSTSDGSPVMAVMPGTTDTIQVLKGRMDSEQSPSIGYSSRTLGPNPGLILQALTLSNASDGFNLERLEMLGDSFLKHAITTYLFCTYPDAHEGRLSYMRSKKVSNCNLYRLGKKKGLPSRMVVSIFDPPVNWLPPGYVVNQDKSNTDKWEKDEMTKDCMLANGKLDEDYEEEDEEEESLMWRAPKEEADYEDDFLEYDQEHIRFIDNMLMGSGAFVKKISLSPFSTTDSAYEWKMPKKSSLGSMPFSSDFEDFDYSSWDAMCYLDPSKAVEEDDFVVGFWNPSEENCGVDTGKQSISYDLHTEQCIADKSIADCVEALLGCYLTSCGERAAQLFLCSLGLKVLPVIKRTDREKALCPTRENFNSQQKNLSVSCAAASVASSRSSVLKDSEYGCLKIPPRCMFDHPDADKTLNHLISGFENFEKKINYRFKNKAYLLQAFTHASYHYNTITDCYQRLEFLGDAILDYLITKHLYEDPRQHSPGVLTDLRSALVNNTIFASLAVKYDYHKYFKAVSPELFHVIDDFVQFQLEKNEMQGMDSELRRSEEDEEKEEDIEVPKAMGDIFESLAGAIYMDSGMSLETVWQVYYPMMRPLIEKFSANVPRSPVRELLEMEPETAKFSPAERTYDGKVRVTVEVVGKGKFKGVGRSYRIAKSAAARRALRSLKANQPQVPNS
UniProt O00571: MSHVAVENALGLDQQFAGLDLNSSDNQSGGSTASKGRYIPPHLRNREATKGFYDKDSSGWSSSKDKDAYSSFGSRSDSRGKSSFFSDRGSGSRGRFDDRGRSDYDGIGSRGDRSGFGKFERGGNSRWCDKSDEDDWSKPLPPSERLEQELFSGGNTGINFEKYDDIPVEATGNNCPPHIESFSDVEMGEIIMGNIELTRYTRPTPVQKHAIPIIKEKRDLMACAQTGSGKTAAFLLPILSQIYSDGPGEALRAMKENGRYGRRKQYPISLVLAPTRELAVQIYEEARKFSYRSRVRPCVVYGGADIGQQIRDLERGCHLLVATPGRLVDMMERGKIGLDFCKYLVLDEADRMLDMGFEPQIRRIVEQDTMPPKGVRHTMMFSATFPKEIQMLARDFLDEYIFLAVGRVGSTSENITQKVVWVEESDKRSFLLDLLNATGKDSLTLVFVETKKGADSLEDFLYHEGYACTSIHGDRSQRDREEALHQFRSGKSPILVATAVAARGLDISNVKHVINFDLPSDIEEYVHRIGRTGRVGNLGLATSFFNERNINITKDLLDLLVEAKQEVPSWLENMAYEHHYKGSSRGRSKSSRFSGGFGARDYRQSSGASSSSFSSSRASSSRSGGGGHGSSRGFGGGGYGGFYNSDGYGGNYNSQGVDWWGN

T1: Drosha-flag (UniProt Q9NRR4)
T1 sequence: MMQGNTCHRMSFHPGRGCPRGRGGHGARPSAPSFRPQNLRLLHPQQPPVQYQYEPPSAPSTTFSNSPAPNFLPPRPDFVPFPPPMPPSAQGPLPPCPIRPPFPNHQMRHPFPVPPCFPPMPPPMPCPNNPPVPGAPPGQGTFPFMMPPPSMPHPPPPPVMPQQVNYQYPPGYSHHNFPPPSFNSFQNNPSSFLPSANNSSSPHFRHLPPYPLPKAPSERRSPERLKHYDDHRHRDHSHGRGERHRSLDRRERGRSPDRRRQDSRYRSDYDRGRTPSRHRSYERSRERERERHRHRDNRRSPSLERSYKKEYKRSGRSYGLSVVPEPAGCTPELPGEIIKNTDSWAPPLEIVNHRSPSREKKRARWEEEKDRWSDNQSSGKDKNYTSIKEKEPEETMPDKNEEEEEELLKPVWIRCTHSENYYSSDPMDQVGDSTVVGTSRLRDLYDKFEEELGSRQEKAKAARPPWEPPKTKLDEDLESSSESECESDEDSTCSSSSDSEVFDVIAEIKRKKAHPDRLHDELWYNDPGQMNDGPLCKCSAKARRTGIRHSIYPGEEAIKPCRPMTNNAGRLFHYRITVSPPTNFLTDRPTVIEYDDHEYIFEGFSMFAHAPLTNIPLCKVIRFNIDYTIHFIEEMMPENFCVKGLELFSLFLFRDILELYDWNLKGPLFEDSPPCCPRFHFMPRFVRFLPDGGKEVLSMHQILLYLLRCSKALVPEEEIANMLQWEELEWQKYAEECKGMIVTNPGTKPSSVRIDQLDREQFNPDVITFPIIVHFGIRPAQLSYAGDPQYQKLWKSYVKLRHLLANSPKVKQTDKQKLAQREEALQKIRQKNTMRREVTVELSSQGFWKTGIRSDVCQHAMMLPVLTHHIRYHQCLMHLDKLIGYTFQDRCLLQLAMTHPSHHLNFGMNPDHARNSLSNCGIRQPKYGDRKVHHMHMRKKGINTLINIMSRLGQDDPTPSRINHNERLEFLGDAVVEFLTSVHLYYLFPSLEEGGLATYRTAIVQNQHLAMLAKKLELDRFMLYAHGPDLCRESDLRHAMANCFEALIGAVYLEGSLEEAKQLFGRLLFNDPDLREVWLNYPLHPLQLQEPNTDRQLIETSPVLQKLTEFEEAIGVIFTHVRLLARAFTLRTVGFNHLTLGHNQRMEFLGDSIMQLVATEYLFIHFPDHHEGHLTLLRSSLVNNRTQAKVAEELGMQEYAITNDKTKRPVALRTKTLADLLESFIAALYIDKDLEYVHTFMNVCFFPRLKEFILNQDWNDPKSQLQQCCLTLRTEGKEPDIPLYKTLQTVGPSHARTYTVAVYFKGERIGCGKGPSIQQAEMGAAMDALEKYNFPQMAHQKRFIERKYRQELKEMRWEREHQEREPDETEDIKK

B1: Drosha-flag (protein, UniProt Q9NRR4 1-1374)
chain: T1 sequence

What was measured:
[1] = target: Dicer (human (endogenous in HEK293)) (UniProt Q9UPY3); test: co-IP; Dicer-IP from HEK293 lysate (600 ug lysate, 3 ug antibody or normal IgG, 4 °C overnight, protein A or G sepharose), Western blot for DDX3X
Drosha-flag = target: T1, Drosha-flag; test: co-IP; HEK293 cells transfected with Drosha-flag; 600 ug lysate with 3 ug anti-Flag M2 or anti-DDX3X antibody or normal IgG at 4 °C overnight, protein A or G sepharose, three washes with IP buffer, Western blot
[2] = target: DDX3X (human (endogenous in HEK293)) (UniProt O00571); test: as above

| Molecule | binding [1] | binding (Drosha-flag) | binding [2] |
| --- | --- | --- | --- |
| DDX3X (from UniProt O00571 1-662) | no binding | binds |  |
| B1 |  |  | binds |
